Data reported in the supplement of paper PMC7125110.
± gives the standard error. The uncertainty is large for many entries.

B1: glmS ribozyme (parent)
chain: AUAAAAGCGCCAGAACUACAGAAAUGUAGUUGACGAGGAGGAGGUUUAUCGAAUUUUCGGCGGAUGCCUCCAAA

Variants of: B1
Experiment: KM; higher = weaker cofactor use; RNA array
Settings: with glucosamine-6-phosphate
How it was run: (§1)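 Tiles of sequenced MiSeq chips were imaged over ~14 h at 37 °C. On them, barcoded ribozyme variants had been transcribed in situ by E. coli RNA polymerase and were tracked via a hybridised Cy3 probe while glucosamine-6-phosphate (40 μM to 10 mM) in HEPES/KCl/Mg(OAc)2 buffer flowed in. Per-tile medians, normalised to baseline and to non-cleaving reference variants, were fit to one- or two-exponential decays for kobs, and weighted Michaelis–Menten fits gave kcat and KM.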

Row | Variant | KM [µM]
1 | AUAAAAGCGCCAGAAGUACAGAAAUGUAGUUGACGAGGAGGAGGUUUAGCGAAUUUUCGGCGGAUGCCUCCAAA [C16G U49G] | 1510 ± 910
2 | AUAAAAGCGCCAGAAGUACAGAAAUGUAGUUGACGAGGAGGAGGUUUAUCGAAUGUUCGGCGGAUGCCUCCAAA [C16G U55G] | 1800 ± 1200
3 | AUAAAAGCGCCAGAAUUACAGAAAUGUAGUUGACGAGGAGGAGGUUUAUCGAAUUUUCGGCGGUUGCCUCCAAA [C16U A64U] | 1510 ± 890
4 | AUAAAAGCGCCAGAAUUACAGAAAUGUAGUUGACGAGGAGGAGGUGUAUCGAAUUUUCGGCGGAUGCCUCCAAA [C16U U46G] | 1810 ± 320
5 | AUAAAAGCGCCAGAAUUACAGAAAUGUAGUUGACGAGGAGGAGGUUUAUCGAACUUUCGGCGGAUGCCCCCAAA [C16U U54C U69C] | 1980 ± 1500
6 | AUAAAAGCGCCAGAAUUACAGAAAUGUAGUUGACGAGGAGGAGGUUUAUCGAAUGUUCGGCGGAUGCUUCCAAA [C16U U55G C68U] | 507 ± 230
7 | AUAAAAGCGCCAGAAUUACAGAAAUGUAGUUGACGAGGAGGAGGUUUAUCGAAUUUGCGGCGGAUGCCUCCAAA [C16U U57G] | 1380 ± 790
8 | AUAAAAGCGCCAGAACUACAGACAUGUAGUUGACGAGGAGGAGGUUUAUCGAAUUUUCGGCGGAUGCCUCCAAA [A23C] | 107 ± 110
9 | AUAAAAGCGCCAGAACUACAGAAAUGUAAUUGACGAGGUGGAGGUUUAUCGAAUUUUCGGCGGAUGCCUCCAAA [G29A A39U] | 3440 ± 1600
10 | AUAAAAGCGCCAGAACUACAGAAAUGUAAUUGACGAGGAGGAGGUUUAUCGAAUUUUCGGCGGAUGACUCCAAA [G29A C67A] | 1930 ± 1200
11 | AUAAAAGCGCCAGAACUACAGAAAUGUAAUUGACGAGGAGGAGGUUUAUCGAAUUUUCGGCGGAUGCCUCGAAA [G29A C71G] | 833 ± 470
12 | AUAAAAGCGCCAGAACUACAGAAAUGUAAUUGACGAGGAGGAGGUUUAUCGAAUUUUCGGCGGAUUCCUCCAAA [G29A G66U] | 2390 ± 2000
13 | AUAAAAGCGCCAGAACUACAGAAAUGUAAUUGACGAGGAGGAGGUUAAUCGAAUUUUCGGCGGAUGCCUCCAAA [G29A U47A] | 2600 ± 1600
14 | AUAAAAGCGCCAGAACUACAGAAAUGUAAUUGACGAGGAGGAGGUUCAUCGAAUUUUCGGCGGAUGCCUCCAAA [G29A U47C] | 1400 ± 310
15 | AUAAAAGCGCCAGAACUACAGAAAUGUAAUUGACGAGGAGGAGGUUUAUCGAAUUAUCGGCGGAUGCCUCCAAA [G29A U56A] | 4500 ± 2400
16 | AUAAAAGCGCCAGAACUACAGAAAUGUACUUGUCGAGGAGGAGGUUUAUCGAAUUUUCGGCGGAUGCCUCCAAA [G29C A33U] | 979 ± 140
17 | AUAAAAGCGCCAGAACUACAGAAAUGUACUUGACGAGGGGGAGGUUUAUCGAAUUUUCGGCGGAUGCCUCCAAA [G29C A39G] | 3130 ± 1600
18 | AUAAAAGCGCCAGAACUACAGAAAUGUACUUGACGAGGAGGAGGUUUAUCGAAUUUUCGGCGGAUGACUCCAAA [G29C C67A] | 822 ± 450
19 | AUAAAAGCGCCAGAACUACAGAAAUGUACUUGACGAGGAGGAGGUUUAUCGAAUUUUCGGCGGAUGCCUCAAAA [G29C C71A] | 326 ± 220
20 | AUAAAAGCGCCAGAACUACAGAAAUGUACUUGACGAGGACGAGGUUUAUCGAAUUUUCGGCGGAUGCCUCCAAA [G29C G40C] | 1020 ± 150
21 | AUAAAAGCGCCAGAACUACAGAAAUGUACUUGACGAGGAGGAGGUUUAUCGAAGUUUCGGCGGAUGCCUCCAAA [G29C U54G] | 1090 ± 710
22 | AUAAAAGCGCCAGAACUACAGAAAUGUAUUUGACGAGGAGGGGGUUUAUCGAAUUUUCGGCGGAUGCCUCCAAA [G29U A42G] | 1770 ± 660
23 | AUAAAAGCGCCAGAACUACAGAAAUGUAUUUGACGAGGAGGAGGUUUAUUGAAUUUUCGGCGGAUGCCUCCAAA [G29U C50U] | 3520 ± 700
24 | AUAAAAGCGCCAGAACUACAGAAAUGUAUUUGACGAGGAGGAGGUUUAUCGAAUUUUCGGCGGAUGACUCCAAA [G29U C67A] | 812 ± 370
25 | AUAAAAGCGCCAGAACUACAGAAAUGUAUUUGACGAGGAGGAGGUUUAUCGAAUUUUCGGCGGAUGCCUACAAA [G29U C70A] | 315 ± 190
26 | AUAAAAGCGCCAGAACUACAGAAAUGUAGAUGUCGAGGAGGAGGUUUAUCGAAUUUUCGGCGGAUGCCUCCAAA [U30A A33U] | 4010 ± 660
27 | AUAAAAGCGCCAGAACUACAGAAAUGUAGAUGACGAGGAGGAGGUUUCUCGAAUUUUCGGCGGAUGCCUCCAAA [U30A A48C] | 12800 ± 1100

Exported as a markdown table: entries from further up

| Row | Variant | KM [µM] |
| --- | --- | --- |
| 2 | AUAAAAGCGCCAGAAGUACAGAAAUGUAGUUGACGAGGAGGAGGUUUAUCGAAUGUUCGGCGGAUGCCUCCAAA [C16G U55G] | 1800 ± 1200 |
| 11 | AUAAAAGCGCCAGAACUACAGAAAUGUAAUUGACGAGGAGGAGGUUUAUCGAAUUUUCGGCGGAUGCCUCGAAA [G29A C71G] | 833 ± 470 |
| 16 | AUAAAAGCGCCAGAACUACAGAAAUGUACUUGUCGAGGAGGAGGUUUAUCGAAUUUUCGGCGGAUGCCUCCAAA [G29C A33U] | 979 ± 140 |

Variants of: B1
Experiment: self-cleavage kobs at 640 uM GlcN6P; higher = faster cleavage; RNA array
Settings: with glucosamine-6-phosphate
How it was run: as §1

Row | Variant | self-cleavage kobs at 640 uM GlcN6P [s⁻¹]
28 | AUAAAAGCGCCAGAAUUACAGAAAUGUAGUUGACGAGGAGGAGGUUUAUCGAAUUUUCGGCGGUUGCCUCCAAA [C16U A64U] | 1.68e-05 ± 1.1e-05

Variants of: B1
Experiment: self-cleavage kobs at 40 uM GlcN6P; higher = faster cleavage; RNA array
Settings: with glucosamine-6-phosphate
How it was run: as §1

Row | Variant | self-cleavage kobs at 40 uM GlcN6P [s⁻¹]
29 | AUAAAAGCGCCAGAACUACAGAAAUGUAAUUGACGAGGAGGAGGUUUAUCGAAUUUUCGGCGGAUGCCUCGAAA [G29A C71G] | 2.03e-05 ± 1.5e-05
30 | AUAAAAGCGCCAGAACUACAGAAAUGUACUUGACGAGGAGGAGGUUUAUCGAAUUUUCGGCGGAUGACUCCAAA [G29C C67A] | 1.37e-05 ± 1.3e-05

Variants of: B1
Experiment: self-cleavage kobs at 160 uM GlcN6P; higher = faster cleavage; RNA array
Settings: with glucosamine-6-phosphate
How it was run: as §1

Row | Variant | self-cleavage kobs at 160 uM GlcN6P [s⁻¹]
31 | AUAAAAGCGCCAGAACUACAGAAAUGUAAUUGACGAGGAGGAGGUUUAUCGAAUUUUCGGCGGAUGCCUCGAAA [G29A C71G] | 3e-05 ± 2.3e-05
32 | AUAAAAGCGCCAGAACUACAGAAAUGUACUUGACGAGGAGGAGGUUUAUCGAAUUUUCGGCGGAUGCCUCAAAA [G29C C71A] | 5.2e-05 ± 2.7e-05
33 | AUAAAAGCGCCAGAACUACAGAAAUGUAUUUGACGAGGAGGAGGUUUAUCGAAUUUUCGGCGGAUGCCUACAAA [G29U C70A] | 1.24e-05 ± 9.8e-06

Variants of: B1
Experiment: self-cleavage kobs at 2500 uM GlcN6P; higher = faster cleavage; RNA array
Settings: with glucosamine-6-phosphate
How it was run: as §1

Row | Variant | self-cleavage kobs at 2500 uM GlcN6P [s⁻¹]
34 | AUAAAAGCGCCAGAACUACAGAAAUGUAUUUGACGAGGAGGGGGUUUAUCGAAUUUUCGGCGGAUGCCUCCAAA [G29U A42G] | 0.00236 ± 0.0014
35 | AUAAAAGCGCCAGAACUACAGAAAUGUAGAUGUCGAGGAGGAGGUUUAUCGAAUUUUCGGCGGAUGCCUCCAAA [U30A A33U] | 2.21e-05 ± 1.3e-05
36 | AUAAAAGCGCCAGAACUACAGAAAUGUAGAUGACGAGGAGGAGGUUUCUCGAAUUUUCGGCGGAUGCCUCCAAA [U30A A48C] | 1.6e-05 ± 1.3e-05

Variants of: B1
Experiment: self-cleavage kobs at 10000 uM GlcN6P; higher = faster cleavage; RNA array
Settings: with glucosamine-6-phosphate
How it was run: as §1

Row | Variant | self-cleavage kobs at 10000 uM GlcN6P [s⁻¹]
37 | AUAAAAGCGCCAGAACUACAGAAAUGUAUUUGACGAGGAGGAGGUUUAUUGAAUUUUCGGCGGAUGCCUCCAAA [G29U C50U] | < 1e-05
